Test results as given in patent US9101567B2, “Suppression of cancer growth and metastasis using nordihydroguaiaretic acid derivatives with 7-hydroxystaurosporine” (The Johns Hopkins University, priority 2010, dated 2015).
Some of these results come from one statement about several compounds together.

System: LNCaP tumors
Assay: Nude mice orthotopically implanted with LNCaP tumors: life-span and lung metastasis
Type: in vivo, nude (nu/nu) mice
Details: LNCaP tumor-bearing nude mice; i.v.; 1 mg/shot M4N, 0.4 mg/shot etoposide, 0.375 mg/shot rapamycin

SMILES | survival after the implantation [days]
CO[C@H]1C[C@@H]2CC[C@@H](C)[C@@](O)(O2)C(=O)C(=O)N2CCCC[C@H]2C(=O)O[C@H]([C@H](C)C[C@@H]2CC[C@@H](O)[C@H](OC)C2)CC(=O)[C@H](C)/C=C(\C)[C@@H](O)[C@@H](OC)C(=O)[C@H](C)C[C@H](C)/C=C/C=C/C=C/1C [rapamycin] | ≤ 34
COc1ccc(C[C@@H](C)[C@@H](C)Cc2ccc(OC)c(OC)c2)cc1OC [M4N, Tetra-O-methyl nordihyroguaiaretic acid] | ≤ 34
COc1cc([C@@H]2c3cc4c(cc3[C@@H](O[C@@H]3O[C@@H]5CO[C@@H](C)O[C@H]5[C@H](O)[C@H]3O)[C@H]3COC(=O)[C@H]23)OCO4)cc(OC)c1O [etoposide] | ≤ 34
